Source: ChEMBL document CHEMBL3988442, “University of Dundee, Small-Polar-MMV Screening Library” (2021).

The chains behind the UniProt entries cited, without tags or fusion partners.
UniProt E9BF75, entry or part of it: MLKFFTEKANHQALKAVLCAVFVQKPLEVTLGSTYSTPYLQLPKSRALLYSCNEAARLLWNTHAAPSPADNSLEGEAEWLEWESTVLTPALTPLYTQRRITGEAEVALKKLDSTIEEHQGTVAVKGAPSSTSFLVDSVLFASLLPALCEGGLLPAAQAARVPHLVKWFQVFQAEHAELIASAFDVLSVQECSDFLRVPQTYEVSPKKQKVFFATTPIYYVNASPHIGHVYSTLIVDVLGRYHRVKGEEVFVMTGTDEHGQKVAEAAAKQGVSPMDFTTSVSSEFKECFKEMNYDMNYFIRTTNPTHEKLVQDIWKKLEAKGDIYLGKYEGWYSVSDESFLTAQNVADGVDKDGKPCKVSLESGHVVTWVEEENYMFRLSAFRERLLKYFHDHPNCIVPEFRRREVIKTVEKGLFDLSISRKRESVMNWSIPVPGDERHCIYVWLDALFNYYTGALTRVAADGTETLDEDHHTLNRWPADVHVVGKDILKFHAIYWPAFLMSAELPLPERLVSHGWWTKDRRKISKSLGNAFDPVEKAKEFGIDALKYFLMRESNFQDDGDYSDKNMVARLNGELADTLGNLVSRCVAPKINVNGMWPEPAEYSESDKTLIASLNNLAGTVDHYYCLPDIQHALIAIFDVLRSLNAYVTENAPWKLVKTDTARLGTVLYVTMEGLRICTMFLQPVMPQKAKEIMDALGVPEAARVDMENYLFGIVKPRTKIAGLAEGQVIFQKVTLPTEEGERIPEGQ

Results are percentages, as filed. The controls that fix the scale are not given in the record; negative values are as filed. Compounds were drawn at random from those tested, without regard to their results.

Mtb heat-shock: 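Assay on Mycobacterium tuberculosis, filed only as a heat shock assay from Cornell; the read-out is not stated. The concentration is filed as 10 mM, unlikely as a test dose, so the dose is not known. Higher reads as stronger inhibition (inferred: compounds with an IC50 in retests scored well above the rest). Size under these conditions: about 69,000 compounds, about 930 of them at 50% or above in at least one test.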
Mtb growth Cornell: 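Whole-cell assay for inhibitors of Mycobacterium tuberculosis growth, labelled Cornell in the record; the read-out is not stated. The concentration is filed as 10 mM, unlikely as a test dose, so the dose is not known. The record gives no direction; compounds strong in two other growth screens of this library score well above the rest, so higher reads as stronger inhibition. About 53,000 compounds were tested under these conditions; 1.7% (about 900) showed 50% or more at least once.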
LdMetRS: 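Primary screen of methionyl-tRNA synthetase; the read-out is not stated. Target: Methionyl-tRNA synthetase (putative), Leishmania donovani (UniProt E9BF75). The test concentration is not given. The values are filed as inhibition. About 68,000 compounds were tested under these conditions; 0.035% (about 24) showed 50% or more at least once.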

* [H][C@@]12CCCN1C[C@@H](CCSC)N(Cc1cnn(C=C)c1C)C2 : Mtb heat-shock: -9.173%; Mtb growth Cornell: -0.4717%
* O=C(O)C(F)(F)F.O=C(O)C(F)(F)F.[H][C@@]12CCCO[C@]1([H])[C@H](OCCCn1cccn1)CN2C1CCOCC1 : Mtb heat-shock: -22.39%; Mtb growth Cornell: -2.643%
* CCO[C@H]1CO[C@@]2(CCN(Cc3ccc4c(c3)OCO4)C2)C1.O=C(O)C(F)(F)F : Mtb heat-shock: -7.609%; Mtb growth Cornell: 22.33%
* NC(=O)NC(=O)CCn1ccc(-c2ccsc2)n1 : Mtb heat-shock: -13.54%; Mtb growth Cornell: 12.96%; LdMetRS: 10.99%
* Cc1ccc(C#N)c(N2CCC(c3nccn3CCN(C)C)CC2)n1 : Mtb heat-shock: -8.156%; Mtb growth Cornell: -12.79%; LdMetRS: 16.59%
* Cn1cc(N2CC3(CCN(CC4CCOCC4)CC3)OCC2=O)cn1.O=C(O)C(F)(F)F : Mtb heat-shock: -1.757%
* CCc1ccc(CN2CCC(=O)N(CC3CC3)C(C(C)C)C2)nc1 (stereo not shown) : Mtb heat-shock: 12.54%; Mtb growth Cornell: 8.892%; LdMetRS: 13.24%
* c1ccc(OCc2nnn3c2CN(c2ncccn2)CCC3)nc1 : LdMetRS: 12.32%
* Cc1cccc(=O)n1CCC(=O)N(C)Cc1cccc2ncccc12 : Mtb heat-shock: -44.41%; Mtb growth Cornell: -11.07%; LdMetRS: 11.5%
* N#Cc1cc(S(N)(=O)=O)ccc1NC1CCc2cc(Cl)ccc21 (stereo not shown) : Mtb heat-shock: 3.657%; Mtb growth Cornell: 11.94%; LdMetRS: 24.3%
* CCCOCC(=O)N1CCc2c(cccc2S(=O)(=O)N2CCOCC2)C1 : Mtb heat-shock: -18.8%; Mtb growth Cornell: -24.97%; LdMetRS: 13.75%
* COc1ccccc1CNC(=O)N1CCN(Cc2cc(C)on2)CC1 : Mtb heat-shock: -9.275%; LdMetRS: 15.06%
* COCc1nc(C2CCN(Cc3ncc[nH]3)CC2)no1 : Mtb heat-shock: -15.76%; Mtb growth Cornell: -22.72%; LdMetRS: 10.93%
* Cc1cnn(CCNCC(O)COc2ccc(F)cc2)c1 (stereo not shown) : Mtb heat-shock: -27.48%; LdMetRS: 23.38%
* O=C(NCCNc1ncccn1)N1CC=C(c2ccccc2)CC1 : Mtb heat-shock: -0.9358%; LdMetRS: 8.791%
* CNC(=O)[C@H]1C[C@@H]2CN(C(=O)c3ccncc3F)C[C@@H]2N1C : LdMetRS: 9.524%
* CC(C)Cc1nnc2sc(-c3cc(C(C)C)n[nH]3)nn12 : Mtb heat-shock: 5.03%; Mtb growth Cornell: 6.347%; LdMetRS: -0.271%
* COCCC1(CO)CCCN(C(=O)c2cc(C#N)c(=O)[nH]c2C)C1 (stereo not shown) : Mtb heat-shock: 4.339%; Mtb growth Cornell: -7.411%; LdMetRS: 4.087%
* CN1CCC(CNC(=O)c2cccc(C(F)(F)F)c2)c2ccccc21 (stereo not shown) : Mtb heat-shock: 80.18%; Mtb growth Cornell: 3.913%; LdMetRS: 10.14%
* CC(=O)N1CCOC2(CCN(C(=O)c3cnoc3C)CC2)C1 : Mtb heat-shock: 3.539%; Mtb growth Cornell: -19.53%; LdMetRS: 13.3%
* O=C1N(c2cccc(F)c2)Cc2nc(=O)n(Cc3ccccc3Cl)n21 : Mtb heat-shock: 17.35%; Mtb growth Cornell: 3.53%; LdMetRS: 11.63%
* CC(C)CC(=O)N1CC(=O)c2sc(Nc3ccc(F)cc3F)nc2C1 : Mtb heat-shock: 2.454%; Mtb growth Cornell: 12.01%; LdMetRS: 11.41%
* O=C(O)C(F)(F)F.[H][C@@]12CN(Cc3ccc(OC)cc3)C[C@]1([H])C(=O)N(c1cncnc1)C2 : Mtb heat-shock: -1.889%; Mtb growth Cornell: 17.37%
* Cc1cc(C)c(CNC(=O)NCc2nnc3n2CCCC3)c(=O)[nH]1 : Mtb heat-shock: 5.608%; LdMetRS: 16.19%
* Cc1ccc(N2CCC3(CCN(C(=O)c4ccccn4)CC3)CC2)nn1 : LdMetRS: 10.62%
* Cc1ccc(-n2cc(C(=O)NCC(C)Cn3cccn3)nn2)cc1 (stereo not shown) : Mtb heat-shock: 3.782%; Mtb growth Cornell: 34.69%; LdMetRS: 14.24%
* CC(C)N1CCN(C(=O)c2ccccc2NCc2cccnc2)CC1 : Mtb heat-shock: -23.99%; Mtb growth Cornell: 12.63%; LdMetRS: 17.13%
* O=C(COCc1ccccc1Cl)N1CCCC(n2cccn2)C1 (stereo not shown) : Mtb heat-shock: -11.17%; LdMetRS: 7.639%
* CC(=O)NCCc1ccc(S(=O)(=O)Nc2cc(F)ccc2C)s1 : Mtb heat-shock: 6.543%; Mtb growth Cornell: -4.742%; LdMetRS: 3.881%
* Cc1cccc(N2CC(c3nnc(N)s3)CC2=O)c1 (stereo not shown) : Mtb heat-shock: 8.946%; Mtb growth Cornell: 26.01%; LdMetRS: 15.58%
* COCCN1CCOCC2(CCCN(Cc3cccc(F)c3)C2)C1.O=C(O)C(F)(F)F.O=C(O)C(F)(F)F (stereo not shown) : Mtb heat-shock: -14.36%; Mtb growth Cornell: -55.72%
* CC(C)NC(=O)c1cnc(Sc2nccn2C)c(Cl)c1 : Mtb heat-shock: -6.229%; Mtb growth Cornell: 3.769%; LdMetRS: 3.194%
* Cc1nn(C)cc1C1SCC(=O)Nc2c1c(O)nn2C(C)C (stereo not shown) : Mtb heat-shock: -5.779%; Mtb growth Cornell: 7.181%; LdMetRS: 10.5%
* Fc1ccc(OCCNC2CCN(Cc3ccccn3)CC2)c(F)c1 : Mtb heat-shock: -7.927%; LdMetRS: 6.091%
* CCc1ccc(CN2CCC3(CC2)C(=O)N(C)CCN3CC)cc1 : Mtb heat-shock: -3.815%; LdMetRS: 11.11%

The first 3 entries again:

[H][C@@]12CCCN1C[C@@H](CCSC)N(Cc1cnn(C=C)c1C)C2 read Mtb heat-shock: -9.173%; Mtb growth Cornell: -0.4717%.
O=C(O)C(F)(F)F.O=C(O)C(F)(F)F.[H][C@@]12CCCO[C@]1([H])[C@H](OCCCn1cccn1)CN2C1CCOCC1 read Mtb heat-shock: -22.39%; Mtb growth Cornell: -2.643%.
CCO[C@H]1CO[C@@]2(CCN(Cc3ccc4c(c3)OCO4)C2)C1.O=C(O)C(F)(F)F read Mtb heat-shock: -7.609%; Mtb growth Cornell: 22.33%.